The values below come from the supplement of paper PMC4683952.

Structures can show the parent of a compound that is named as a salt. About 50 (4%) of roughly 1,200 compounds showed activity. Cut-off read from the data, not from the text of the source: all actives reach 1.3 or more but so do some inactives. This is one part of the list.

The test relates to Lgr5 (MarsCy1-Lgr5-EGFP, U2OS). In words: cell-surface Lgr5 expression (SCi1 fluorescence, background-subtracted) relative to WT DMSO (fold of DMSO control); higher = more Lgr5 at the plasma membrane, active = hit call of the paper. Conditions: U2OS MarsCy1-Lgr5-EGFP stable; treatment time: overnight; 16 µM; library: Johns Hopkins Clinical Compound Library.
Regarding `C#C[C@]1(O)CC[C@H]2[C@@H]3CCC4=CC(=O)CC[C@@H]4[C@H]3CC[C@@]21CC` [Norgestrel D(-) (Levonorgestrel)], the “cell-surface Lgr5 expression” value is inactive: 1.29.

Regarding `CC(=O)O[C@H]1CC[C@@]2(C)C(=CC[C@H]3[C@@H]4CC[C@H](C(C)=O)[C@@]4(C)CC[C@@H]32)C1` [Pregnenolone acetate], the “cell-surface Lgr5 expression” value is inactive: 0.869.

For the compound `C[C@]1(Cn2ccnn2)[C@H](C(=O)O)N2C(=O)C[C@H]2S1(=O)=O` [Tazobactam sodium salt], the “cell-surface Lgr5 expression” value is inactive: 1.09. `CC(=O)OCC(=O)[C@@]1(OC(C)=O)[C@@H](C)C[C@H]2[C@@H]3C[C@H](F)C4=CC(=O)C=C[C@]4(C)[C@@]3(F)[C@@H](O)C[C@@]21C` [Diflorasone diacetate]: the “cell-surface Lgr5 expression” value is active: 1.67.

For `CCN(CC)CCOCCOC(=O)C(CC)(CC)c1ccccc1` [Oxeladin citrate salt], the “cell-surface Lgr5 expression” value is active: 1.48. Next, `O=P([O-])(O)O.[Na+]` [Sodium phosphate monobasic]: inactive: 1.11; `O=C([O-])/C=C/C(=O)[O-].[Fe+2]` [Ferrous fumarate]: inactive: 1.1.

Turning to `CCCOc1ccc(C(=O)OCCN(CC)CC)cc1N` [Proparacaine], the “cell-surface Lgr5 expression” value is inactive: 1.22. With `C=CCCCCCCCCC(=O)[O-].C=CCCCCCCCCC(=O)[O-].[Zn+2]` [Zinc undecylenate], the “cell-surface Lgr5 expression” value was inactive: 0.599. As to `NC1CCN(c2nc3c(cc2F)c(=O)c(C(=O)O)cn3-c2ccc(F)cc2F)C1` (configuration not stated) [Tosufloxacin], the “cell-surface Lgr5 expression” value was inactive: 0.98.

Consider `CCNC(=O)/C=C/c1cccc(Br)c1` [Cinromide (trans-3-bromo-n-ethyl-cinnamide)], for which the “cell-surface Lgr5 expression” value was inactive: 1.15. With `COC(=O)Nc1nc2cc([S+]([O-])c3ccccc3)ccc2[nH]1` (configuration not stated) [Oxfendazole], the “cell-surface Lgr5 expression” value was inactive: 1.18. For `N=C(N)NCCC[C@H](N)C(=O)O.N[C@@H](CCC(=O)O)C(=O)O` [Arginine Glutamate (L-Arginine L-Glutamate salt)], the “cell-surface Lgr5 expression” value was inactive: 1.03. Consider `COc1ccccc1OCC(O)COC(N)=O` (configuration not stated) [Methocarbamol (Guaiacol Glyceryl Ether Carbamate)], for which the “cell-surface Lgr5 expression” value was inactive: 1.14. Consider `Nc1ccn([C@@H]2CS[C@H](CO)O2)c(=O)n1` [Lamivudine], for which the “cell-surface Lgr5 expression” value is inactive: 0.724. As for `NC(=O)[C@@H]1CCCN1C(=O)[C@H](Cc1c[nH]cn1)NC(=O)[C@@H]1CCC(=O)N1`, the “cell-surface Lgr5 expression” value was inactive: 0.977. Then `O=C(c1ccccc1)c1ccc2n1CCC2C(=O)O` (configuration not stated) [Ketorolac], with inactive: 1.11.

`CCOC(=O)[C@@](C)(N)Cc1ccc(O)c(O)c1` [Methyldopate hydrochloride]: the “cell-surface Lgr5 expression” value was inactive: 1.29.

On to `COc1c(N2CCNC(C)C2)c(F)cc2c(=O)c(C(=O)O)cn(C3CC3)c12` (configuration not stated) [Gatifloxacin], for which the “cell-surface Lgr5 expression” value was inactive: 1.01. Next, `OCc1ccccc1O` [Salicyl alcohol (2-Hydroxybenzyl alcohol)]: inactive: 0.961; `CN1Cc2c(N)cccc2C(c2ccccc2)C1` (configuration not stated) [Nomifensine maleate]: inactive: 0.436; `FC(F)(F)COCC(F)(F)F` [Flurothyl (2,2,2-Trifluoroethyl ether)]: inactive: 0.97. As for `O=C1NC(=O)C(c2ccccc2)(c2ccccc2)N1` [Phenytoin (5,5Diphenylhydantoin sodium salt)], the “cell-surface Lgr5 expression” value was inactive: 0.534.

On to `O=C1CCC(c2ccccc2)(C2CCN(Cc3ccccc3)CC2)C(=O)N1` (configuration not stated) [Benzetimide], for which the “cell-surface Lgr5 expression” value was inactive: 1.09. For the compound `CCCCCCCCCCCCCCOS(=O)(=O)O` [Tetradecyl sulfate, sodium salt, 95%], the “cell-surface Lgr5 expression” value is inactive: 1.28. As to `CN[C@H](CC(C)C)C(=O)N[C@H]1C(=O)N[C@@H](CC(N)=O)C(=O)N[C@H]2C(=O)N[C@H]3C(=O)N[C@H](C(=O)N[C@H](C(=O)O)c4cc(O)cc(O)c4-c4cc3ccc4O)[C@H](O)c3ccc(c(Cl)c3)Oc3cc2cc(c3O[C@@H]2O[C@H](CO)[C@@H](O)[C@H](O)[C@H]2O[C@H]2C[C@](C)(N)[C@H](O)[C@H](C)O2)Oc2ccc(cc2Cl)[C@H]1O` [Vancomycin HCL hydrate], the “cell-surface Lgr5 expression” value is inactive: 1.14. `O=C(CCCl)NCc1ccccc1` [Beclamide (n-benzyl 3 chloropropionamide)]: the “cell-surface Lgr5 expression” value was inactive: 0.654. For the compound `NC(=O)c1ncn([C@@H]2O[C@H](CO)[C@@H](O)[C@H]2O)n1` [Ribavirin], the “cell-surface Lgr5 expression” value was inactive: 0.899.

With `CC(C)COCC(CN(Cc1ccccc1)c1ccccc1)N1CCCC1` (configuration not stated) [Bepridil], the “cell-surface Lgr5 expression” value was active: 1.31. Then `O=C(O)c1cc(=O)c2ccccc2o1`, with inactive: 0.949. For `NS(=O)(=O)c1cc(C(=O)O)c(NCc2ccco2)cc1Cl` [Furosemide], the “cell-surface Lgr5 expression” value was inactive: 1.11.

On to `Cc1cc(C2CCCCC2)n(O)c(=O)c1` [Ciclopirox olamine], for which the “cell-surface Lgr5 expression” value was inactive: 0.528. Consider `COc1cc(C(=O)NS(=O)(=O)c2ccccc2C)ccc1Cc1cn(C)c2ccc(NC(=O)OC3CCCC3)cc12` [Zafirlukast], for which the “cell-surface Lgr5 expression” value is inactive: 1.12. For `CCO` [Ethanol], the “cell-surface Lgr5 expression” value was inactive: 0.993. For the compound `C=C[C@H]1CN2CC[C@H]1C[C@H]2[C@H](O)c1ccnc2ccc(OC)cc12.NC(N)=O` [Quinine urea hydrochloride], the “cell-surface Lgr5 expression” value is inactive: 1.39. Consider `O=C(Nc1ccc(C(=O)O)c(O)c1)c1ccccc1`, for which the “cell-surface Lgr5 expression” value was inactive: 0.869.

As for `CCCCOC(=O)c1ccc(N)cc1` [Butamben (n-butyl p aminobenzoate)], the “cell-surface Lgr5 expression” value was inactive: 1. Consider `CCCCC1=NC2(CCCC2)C(=O)N1Cc1ccc(-c2ccccc2-c2nnn[nH]2)cc1` [Irbesartan], for which the “cell-surface Lgr5 expression” value was inactive: 0.824. Take `CC(C)COC(=O)OCN1C(=O)CN(CCN2CC(=O)N(COC(=O)OCC(C)C)C(=O)C2)CC1=O` [Sobuzoxane]: the “cell-surface Lgr5 expression” value is inactive: 0.958. Next, `CCCCCCn1c(=O)c2c(ncn2C)n(C)c1=O` [Pentifylline]: inactive: 1.18; `COCC1=C(C(=O)OC(C)OC(=O)OC(C)C)N2C(=O)[C@@H](NC(=O)/C(=N\OC)c3csc(N)n3)[C@H]2SC1` (some centres not stated) [Cefpodoxime proxetil]: inactive: 0.424; `O=C(CCCN1CCC(O)(c2ccc(Br)cc2)CC1)c1ccc(F)cc1` [Bromperidol]: inactive: 1.23. Consider `CO[C@@]1(NC(=O)Cc2cccs2)C(=O)N2C(C(=O)O)=C(COC(N)=O)CS[C@@H]21` [Cefoxitin], for which the “cell-surface Lgr5 expression” value was inactive: 1.07.

Regarding `CC(=O)c1ccc2c(c1)N(CCCN1CCC(CCO)CC1)c1ccccc1S2` [Piperacetazine], the “cell-surface Lgr5 expression” value was inactive: 1.01. Next, `OC[C@@H](O)[C@H](O)[C@@H](O)CO` [Xylitol]: inactive: 1.15; `ClC(Cl)(c1ccccc1)c1ccccc1` [Dichlorodiphenyl-methane]: inactive: 1.03.

Consider `COc1cc2c(cc1OC)C(=O)C(CC1CCN(Cc3ccccc3)CC1)C2` (configuration not stated) [Donepezil hydrochloride], for which the “cell-surface Lgr5 expression” value was inactive: 0.531. With `CCCCC(CC)CN1CN(CC(CC)CCCC)CC(C)(N)C1` (configuration not stated) [Hexetidine], the “cell-surface Lgr5 expression” value is inactive: 1.11.

For `O=S(=O)([O-])[O-].O=S(=O)([O-])[O-].[Al+3].[K+]` [Aluminum potassium sulfate], the “cell-surface Lgr5 expression” value was inactive: 0.629. Turning to `O.O.O.O.O.O.O.O=S(=O)([O-])[O-].[Mg+2]` [Magnesium sulfate], the “cell-surface Lgr5 expression” value is inactive: 1.04. For the compound `CN1C(C(=O)Nc2ccccn2)=C(O)c2sccc2S1(=O)=O` [Tenoxicam], the “cell-surface Lgr5 expression” value is inactive: 0.969. Consider `C[C@]12C=CC(=O)C=C1CC[C@@H]1[C@@H]2[C@@H](O)C[C@@]2(C)[C@H]1CC[C@]2(O)C(=O)COP(=O)(O)O` [Prednisolone 21-phosphate, disodium salt], for which the “cell-surface Lgr5 expression” value was active: 1.41. Take `C[C@]12C=CC(=O)C=C1CC[C@@H]1[C@@H]2[C@@H](O)C[C@@]2(C)[C@H]1CC[C@]2(O)C(=O)COP(=O)(O)O` [Prednisolone sodium phosphate]: the “cell-surface Lgr5 expression” value is inactive: 1.25. In the case of `N=C(N)N` [Guanidine hydrochloride], the “cell-surface Lgr5 expression” value was inactive: 0.767.

Take `C=C[C@H]1CN2CC[C@H]1C[C@@H]2[C@@H](O)c1ccnc2ccc(OC)cc12` [Quinidine sulfate dihydrate]: the “cell-surface Lgr5 expression” value was inactive: 1.24. In the case of `CC(=O)O[C@]1(C(C)=O)CC[C@H]2[C@@H]3CCC4=CC(=O)CC[C@]4(C)[C@H]3CC[C@@]21C` [Hydroxyprogesterone acetate (17alpha-Acetoxyprogesterone)], the “cell-surface Lgr5 expression” value is inactive: 1.21.

In the case of `Cn1c(=O)c2[nH]cnc2n(C)c1=O` [Aminophylline], the “cell-surface Lgr5 expression” value is inactive: 0.906. For the compound `Cn1c(=O)c2[nH]cnc2n(C)c1=O` [Oxtriphylline], the “cell-surface Lgr5 expression” value is inactive: 0.861. Take `C#C[C@]1(O)CC[C@H]2[C@@H]3CCc4cc(OC5CCCC5)ccc4[C@H]3CC[C@@]21C` [Quinestrol (17α-Ethynylestradiol 3-cyclopentyl ether)]: the “cell-surface Lgr5 expression” value is inactive: 1.09. With `Cc1ccnc2c1NC(=O)c1cccnc1N2C1CC1` [Nevirapine], the “cell-surface Lgr5 expression” value is inactive: 0.832. As to `Cc1[nH]c(=O)c(C#N)cc1-c1ccncc1` [Milrinone], the “cell-surface Lgr5 expression” value is inactive: 1.08. Then `C[Se]CCC(N)C(=O)O` [Seleno-D, L-methionine], with inactive: 1.08. In the case of `O=C(Nc1ccccc1)c1ccccc1O` [Salicylanilide], the “cell-surface Lgr5 expression” value was inactive: 0.974.

`CC(=O)N[C@@H](CCC(N)=O)C(=O)O` [Aceglutamide (N-acetyl-L-glutamine)]: the “cell-surface Lgr5 expression” value is inactive: 1.2. On to `CC(=O)NO` [Acetohydroxamic acid], for which the “cell-surface Lgr5 expression” value is inactive: 0.848. Next, `CN1CCCN=C1COC(=O)C(O)(c1ccccc1)C1CCCCC1` (configuration not stated) [Oxyphencyclimine]: inactive: 1.15; `Cc1ccc(/C(=C\CN2CCCC2)c2cccc(/C=C/C(=O)O)n2)cc1` [Acrivastine]: inactive: 1.15.
